PubChem BioAssay AID504764 | Drosophila RNAi Screening Center – 2011

Screen: 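Genes whose knock-down alters Notch-dependent transcription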 (primary screen)
System: Drosophila Kc167 cells
Reagent: long dsRNA against Drosophila genes
Time to read-out: about 5 days (4 days dsRNA, then 24 h after transfection)
Challenge: transfection of constitutively active membrane-tethered Notch lacking the extracellular domain, read 24 h later
Detection: 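Light from a Notch-responsive E(spl)m3 luciferase reporter under active Notch, with control-promoter and no-Notch reporter wells to normalise; raw counts from paired wells a and b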
Reading the numbers: induced reporter light, run 1, well a and induced reporter light, run 1, well b: higher = more light from the Notch target reporter with active Notch; control promoter light, run 1, well a and control promoter light, run 1, well b: higher = more light from the viral control promoter (cell number, transfection, viability); uninduced reporter light, run 1, well a: higher = more light from the Notch target reporter without active Notch
Rule for the call: 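Hit if the duplicate-averaged log2 ratio of induced to control-promoter light gives a plate-wise z beyond ±2, or induced to uninduced beyond ±1.8; weak-control or discordant-duplicate wells dropped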
Calls: active = modifier hit (raised or lowered Notch signal); inactive = not a hit
The deposit covers about 22,000 reagents; below is a random part of those that have a named target and a result. Over the whole deposit, 403 (1.9%) were called active. 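Unnormalised raw counts per well; ratio z-scores behind the hit calls and whether each hit raises or lowers signal are not deposited.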 A number with no mark means an inactive call. A plus sign joins genes that one reagent is predicted to hit. Reagent sequences are not shown. The record does not give: the amount of reagent.

| target | DRSC id | induced reporter light, run 1, well a | induced reporter light, run 1, well b | control promoter light, run 1, well a | control promoter light, run 1, well b | uninduced reporter light, run 1, well a |
| --- | --- | --- | --- | --- | --- | --- |
| Mst84Dd (GeneID 40886) | DRSC12600 | 98955 | 1.21e5 | 1.14e5 | 92035 | 8725 |
| Ir100a (GeneID 43753) | DRSC14329 | 1.15e5 (active) | 1.40e5 | 1.88e5 | 2.16e5 | 9595 |
| BaraB (GeneID 35894) | DRSC06420 | 1.94e5 | 2.31e5 | 2.09e5 | 2.28e5 | 18378 |
| TotZ (GeneID 117459) | DRSC13450 | 47885 | 49125 | 73550 | 46115 | 6130 |
| ATPsynF (GeneID 37931) | DRSC04482 | 61530 | 62520 | 51900 | 57865 | 4240 |
| Use1 (GeneID 39051) | DRSC10180 | 1.84e5 | 2.24e5 | 2.04e5 | 1.91e5 | 11390 |
| fmt (GeneID 38714) | DRSC09717 | 42655 (active) | 50890 | 49200 | 13165 | 6985 |
| mus302 (GeneID 39874) | DRSC09905 | 1.20e5 | 1.50e5 | 1.74e5 | 1.55e5 | 9310 |
| CG31819 (GeneID 260658) | DRSC01532 | 92000 | 85475 | 85180 | 57230 | 8365 |
| CG13692 (GeneID 33216) | DRSC00361 | 92670 | 1.08e5 | 1.03e5 | 52110 | 6930 |
| GstE7 (GeneID 37112) | DRSC06677 | 98525 | 1.06e5 | 1.84e5 | 2.54e5 | 10120 |
| Cyp9b1 (GeneID 35634) | DRSC07389 | 2.00e5 | 2.32e5 | 2.54e5 | 2.26e5 | 16110 |
| Rim2 (GeneID 33350) | DRSC00073 | 1.19e5 | 1.14e5 | 1.44e5 | 1.58e5 | 8730 |
| Rim2 (GeneID 33350) | DRSC00520 | 1.13e5 | 1.52e5 | 1.27e5 | 1.30e5 | 10685 |
| Mipp1 (GeneID 39841) | DRSC11223 | 1.29e5 | 1.18e5 | 80500 | 1.15e5 | 9390 |
| Wnk (GeneID 40391) | DRSC11813 | 23110 | 15340 | 9270 | 10975 | 5180 |
| lab (GeneID 40817) | DRSC12627 | 42110 | 43670 | 44195 | 45355 | 5190 |
| Dys + snoRNA:Me18S-A1374 | DRSC16232 | 75105 | 58910 | 57295 | 60190 | 7085 |
| CG3961 (GeneID 40056) | DRSC10390 | 87425 | 1.10e5 | 59765 | 74370 | 8085 |
| CG3961 (GeneID 40056) | DRSC10391 | 2.39e5 | 2.28e5 | 3.45e5 | 2.95e5 | 12460 |
| CG6660 (GeneID 42708) | DRSC16087 | 2.01e5 | 2.14e5 | 2.82e5 | 2.74e5 | 17120 |
| l(3)mbt (GeneID 43288) | DRSC16983 | 73945 | 68260 | 64500 | 69815 | 10735 |
| CG7484 (GeneID 39969) | DRSC10853 | 1.60e5 | 1.45e5 | 1.35e5 | 1.48e5 | 5900 |
| capt (GeneID 45233) | DRSC00676 | 1.00e5 | 76135 | 70700 | 57855 | 7240 |
| capt (GeneID 45233) | DRSC00806 | 1.04e5 | 87725 | 80460 | 66630 | 10235 |
| odd (GeneID 33583) | DRSC00832 | 7710 | 5075 | 9150 | 7700 | 2615 |
| resilin (GeneID 36880) | DRSC05627 | 95995 | 1.07e5 | 1.17e5 | 1.25e5 | 8300 |
| resilin (GeneID 36880) | DRSC06595 | 1.16e5 | 1.10e5 | 93550 | 97065 | 5995 |
| Taf10b (GeneID 33468) | DRSC00792 | 1.03e5 | 1.03e5 | 91270 | 54065 | 9775 |
| CG15571 (GeneID 31365) | DRSC18059 | 1.34e5 | 1.37e5 | 2.89e5 | 2.31e5 | 10785 |
| Cht11 (GeneID 31630) | DRSC18270 | 1.91e5 | 1.57e5 | 2.38e5 | 2.94e5 | 12780 |
| Hesr (GeneID 32800) | DRSC19965 | 56495 | 55990 | 71710 | 77175 | 7270 |
| Mst33A (GeneID 34578) | DRSC03371 | 1.16e5 | 1.85e5 | 70130 | 88410 | 18985 |
| RalGPS (GeneID 36881) | DRSC06941 | 65320 | 73875 | 1.05e5 | 1.17e5 | 5505 |
| HnRNP-K (GeneID 43862) | DRSC07585 | 1.31e5 | 1.05e5 | 1.66e5 | 1.99e5 | 9750 |
| Kmn1 (GeneID 32102) | DRSC19666 | 1.42e5 | 1.36e5 | 2.58e5 | 2.00e5 | 8800 |
| CG14551 (GeneID 43171) | DRSC14894 | 1.25e5 | 1.22e5 | 1.78e5 | 1.58e5 | 10585 |
| dl (GeneID 35047) | DRSC03520 | 1.02e5 | 1.07e5 | 70235 | 69440 | 10815 |
| dl (GeneID 35047) | DRSC03521 | 1.48e5 | 1.63e5 | 1.74e5 | 1.76e5 | 12425 |
| CG32176 (GeneID 39944) | DRSC10057 | 1.47e5 | 1.43e5 | 1.85e5 | 1.61e5 | 7590 |
| CG32176 (GeneID 39944) | DRSC10058 | 1.21e5 | 1.26e5 | 2.04e5 | 1.78e5 | 6860 |
| RpL9 (GeneID 34526) | DRSC03418 | 50970 | 54830 | 32675 | 52185 | 6010 |
| CG13243 (GeneID 34933) | DRSC01920 | 1.65e5 | 1.97e5 | 1.88e5 | 2.18e5 | 13300 |
| Lasp (GeneID 39864) | DRSC10379 | 1.24e5 | 67920 | 1.03e5 | 82490 | 8035 |
| CG8046 (GeneID 35936) | DRSC07059 | 2.03e5 | 2.16e5 | 1.77e5 | 2.02e5 | 15035 |
| bowl (GeneID 33602) | DRSC00805 | 69050 | 73150 | 54595 | 61860 | 5055 |
| CG13133 (GeneID 34342) | DRSC02230 | 1.10e5 | 1.80e5 | 88915 | 1.25e5 | 18430 |
| CG8788 (GeneID 35932) | DRSC07267 | 1.88e5 | 1.56e5 | 2.31e5 | 1.78e5 | 15228 |
| CG9416 (GeneID 37223) | DRSC07339 | 79575 | 90835 | 1.31e5 | 1.31e5 | 12545 |
| Zasp66 (GeneID 38988) | DRSC08932 | 2.21e5 | 2.04e5 | 2.31e5 | 2.07e5 | 16155 |
| Zasp66 (GeneID 38988) | DRSC10631 | 1.18e5 | 89640 | 59535 | 21945 | 7965 |
| Zasp66 (GeneID 38988) | DRSC10632 | 2.27e5 | 2.04e5 | 2.42e5 | 1.93e5 | 9330 |
| se (GeneID 38973) | DRSC10713 | 1.93e5 | 1.75e5 | 2.31e5 | 1.37e5 | 9185 |
| AOX3 (GeneID 41896) | DRSC15955 | 1.53e5 | 1.63e5 | 1.24e5 | 93700 | 10335 |
| CG15465 (GeneID 31434) | DRSC18048 | 1.26e5 | 1.32e5 | 2.46e5 | 3.34e5 | 9928 |
| Gk2 (GeneID 38221) | DRSC08610 | 91120 | 80195 | 1.66e5 | 1.92e5 | 6940 |
| Vajk4 (GeneID 36950) | DRSC06589 | 1.14e5 | 1.03e5 | 1.69e5 | 2.24e5 | 10320 |
| Vajk4 (GeneID 36950) | DRSC07003 | 1.23e5 | 84390 | 1.23e5 | 1.36e5 | 8805 |
| CG11878 (GeneID 43050) | DRSC14422 | 1.53e5 | 1.64e5 | 2.00e5 | 2.09e5 | 13390 |
| CG5377 (GeneID 42645) | DRSC15783 | 1.86e5 | 1.69e5 | 2.06e5 | 2.31e5 | 16292 |
| LysP (GeneID 38129) | DRSC08676 | 1.25e5 | 1.35e5 | 1.83e5 | 1.48e5 | 6580 |
| CG12991 (GeneID 32734) | DRSC19511 | 98895 | 86015 | 1.13e5 | 89500 | 12680 |
| CG8219 (GeneID 38722) | DRSC10971 | 1.76e5 | 1.62e5 | 1.28e5 | 1.88e5 | 9335 |
| bun (GeneID 34665) | DRSC01253 | 1.39e5 | 94770 | 1.73e5 | 1.53e5 | 8460 |
| bun (GeneID 34665) | DRSC01255 | 1.58e5 | 1.57e5 | 2.34e5 | 2.27e5 | 8620 |
| bun (GeneID 34665) | DRSC03500 | 37900 | 37955 | 24705 | 29225 | 7655 |

Sorted by “uninduced reporter light, run 1, well a” (descending): some entries from above.
| target | DRSC id | induced reporter light, run 1, well a | induced reporter light, run 1, well b | control promoter light, run 1, well a | control promoter light, run 1, well b | uninduced reporter light, run 1, well a |
| --- | --- | --- | --- | --- | --- | --- |
| CG6660 (GeneID 42708) | DRSC16087 | 2.01e5 | 2.14e5 | 2.82e5 | 2.74e5 | 17120 |
| CG3961 (GeneID 40056) | DRSC10391 | 2.39e5 | 2.28e5 | 3.45e5 | 2.95e5 | 12460 |
| l(3)mbt (GeneID 43288) | DRSC16983 | 73945 | 68260 | 64500 | 69815 | 10735 |
| Mipp1 (GeneID 39841) | DRSC11223 | 1.29e5 | 1.18e5 | 80500 | 1.15e5 | 9390 |
| CG3961 (GeneID 40056) | DRSC10390 | 87425 | 1.10e5 | 59765 | 74370 | 8085 |
| Dys + snoRNA:Me18S-A1374 | DRSC16232 | 75105 | 58910 | 57295 | 60190 | 7085 |
| lab (GeneID 40817) | DRSC12627 | 42110 | 43670 | 44195 | 45355 | 5190 |
| Wnk (GeneID 40391) | DRSC11813 | 23110 | 15340 | 9270 | 10975 | 5180 |
